Experimental data from paper PMC4066787.
Results are given in words; binding and its absence hold for the method and conditions named. Binding seen in cells or lysates may run through a third protein. Some results given as binding are weak or reduced against the parent protein; the word gives no strength.

By UniProt entry, the sequences of proteins in these tests, tags left out.
UniProt Q6PDQ2: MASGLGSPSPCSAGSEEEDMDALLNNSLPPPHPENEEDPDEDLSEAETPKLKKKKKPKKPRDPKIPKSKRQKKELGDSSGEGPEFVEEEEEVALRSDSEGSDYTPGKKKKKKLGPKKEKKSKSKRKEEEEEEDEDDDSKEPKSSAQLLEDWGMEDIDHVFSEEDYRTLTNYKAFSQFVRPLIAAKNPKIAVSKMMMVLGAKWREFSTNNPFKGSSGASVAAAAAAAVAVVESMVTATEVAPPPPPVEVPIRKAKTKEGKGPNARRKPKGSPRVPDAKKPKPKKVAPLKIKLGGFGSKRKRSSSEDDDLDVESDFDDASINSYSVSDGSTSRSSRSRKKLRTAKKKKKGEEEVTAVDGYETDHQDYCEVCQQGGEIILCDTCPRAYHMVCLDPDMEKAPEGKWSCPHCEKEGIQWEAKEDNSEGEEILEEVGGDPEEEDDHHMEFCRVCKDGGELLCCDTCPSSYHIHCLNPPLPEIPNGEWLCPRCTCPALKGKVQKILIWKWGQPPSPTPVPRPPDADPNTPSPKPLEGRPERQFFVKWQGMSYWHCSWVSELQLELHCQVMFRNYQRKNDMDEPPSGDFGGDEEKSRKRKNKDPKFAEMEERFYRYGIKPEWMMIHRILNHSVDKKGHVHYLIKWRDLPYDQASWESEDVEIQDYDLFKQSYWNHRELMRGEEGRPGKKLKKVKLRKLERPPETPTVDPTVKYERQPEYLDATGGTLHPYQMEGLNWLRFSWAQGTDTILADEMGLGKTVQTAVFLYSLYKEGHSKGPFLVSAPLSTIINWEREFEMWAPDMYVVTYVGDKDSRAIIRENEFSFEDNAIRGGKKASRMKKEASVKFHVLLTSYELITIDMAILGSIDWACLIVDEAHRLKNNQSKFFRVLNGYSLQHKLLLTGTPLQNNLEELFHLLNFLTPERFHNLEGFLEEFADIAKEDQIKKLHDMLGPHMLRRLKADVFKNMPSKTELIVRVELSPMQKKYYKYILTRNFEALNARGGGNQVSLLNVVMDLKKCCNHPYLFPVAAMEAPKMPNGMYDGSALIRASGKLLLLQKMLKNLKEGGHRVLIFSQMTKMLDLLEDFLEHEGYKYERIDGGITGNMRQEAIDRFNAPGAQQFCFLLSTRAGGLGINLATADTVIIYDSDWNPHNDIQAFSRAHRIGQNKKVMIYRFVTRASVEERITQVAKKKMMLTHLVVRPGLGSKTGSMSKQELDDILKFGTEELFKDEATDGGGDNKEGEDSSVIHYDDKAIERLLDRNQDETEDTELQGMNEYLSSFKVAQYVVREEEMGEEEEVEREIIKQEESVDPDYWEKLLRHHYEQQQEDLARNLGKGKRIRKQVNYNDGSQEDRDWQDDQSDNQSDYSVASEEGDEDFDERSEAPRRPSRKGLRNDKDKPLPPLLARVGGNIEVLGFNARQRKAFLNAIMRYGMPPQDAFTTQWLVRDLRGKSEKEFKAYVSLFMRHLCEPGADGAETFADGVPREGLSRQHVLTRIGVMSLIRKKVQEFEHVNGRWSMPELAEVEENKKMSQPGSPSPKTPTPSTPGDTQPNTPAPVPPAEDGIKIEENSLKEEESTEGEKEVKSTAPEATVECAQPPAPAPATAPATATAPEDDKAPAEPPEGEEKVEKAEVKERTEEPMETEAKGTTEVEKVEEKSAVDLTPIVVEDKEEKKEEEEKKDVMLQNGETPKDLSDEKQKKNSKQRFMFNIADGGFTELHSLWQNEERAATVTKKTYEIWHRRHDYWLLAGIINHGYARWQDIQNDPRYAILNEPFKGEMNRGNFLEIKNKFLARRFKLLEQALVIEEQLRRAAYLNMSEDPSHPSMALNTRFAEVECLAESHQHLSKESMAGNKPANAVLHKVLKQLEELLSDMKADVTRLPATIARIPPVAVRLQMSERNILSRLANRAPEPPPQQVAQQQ

Target: T1, epigenetic regulator UHRF1 protein (mouse (endogenous in R1 ESCs)) (UniProt Q8VDF2)
T1 sequence: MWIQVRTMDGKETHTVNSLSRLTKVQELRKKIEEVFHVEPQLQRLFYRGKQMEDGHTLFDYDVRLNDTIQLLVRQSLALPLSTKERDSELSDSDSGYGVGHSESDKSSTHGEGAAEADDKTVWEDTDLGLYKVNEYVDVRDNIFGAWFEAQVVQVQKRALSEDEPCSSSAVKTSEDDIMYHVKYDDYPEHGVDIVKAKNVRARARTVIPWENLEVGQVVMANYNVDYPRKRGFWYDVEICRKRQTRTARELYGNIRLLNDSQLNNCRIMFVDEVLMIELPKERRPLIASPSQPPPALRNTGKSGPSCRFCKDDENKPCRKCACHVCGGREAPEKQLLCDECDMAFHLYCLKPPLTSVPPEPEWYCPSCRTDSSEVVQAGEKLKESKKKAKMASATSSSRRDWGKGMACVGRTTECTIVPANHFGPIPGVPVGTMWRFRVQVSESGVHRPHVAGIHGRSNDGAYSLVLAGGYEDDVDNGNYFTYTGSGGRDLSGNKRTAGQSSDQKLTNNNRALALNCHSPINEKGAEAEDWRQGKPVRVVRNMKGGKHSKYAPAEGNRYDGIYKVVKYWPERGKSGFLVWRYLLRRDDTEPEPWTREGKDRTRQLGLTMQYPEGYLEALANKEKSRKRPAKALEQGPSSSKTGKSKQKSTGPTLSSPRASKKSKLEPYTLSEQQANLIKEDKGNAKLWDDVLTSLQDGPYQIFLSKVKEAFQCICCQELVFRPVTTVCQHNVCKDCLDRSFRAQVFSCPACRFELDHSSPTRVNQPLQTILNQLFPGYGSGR
Experiment: co-IP; immunoprecipitation with anti-UHRF1 antibody from soluble extracts of ESCs in the presence of ethidium bromide to exclude DNA-mediated interaction; western blot

binding: binds
Substance: ATPase CHD4 (from UniProt Q6PDQ2 1-1915)
